Laboratory results: PubChem BioAssay AID686937 (Drosophila RNAi Screening Center, 2013)
The deposit covers about 23,000 reagents; below is a random part of those that have a named target and a result. 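Reduced-secretion tags in replicate 1 do not always agree with the z-scores; no criterion for assigning the tags was given.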 Reagents against one gene are numbered here. Names joined by + are all predicted targets of the reagent. No sequences are given here. Not stated in the record: the amount of reagent.

- Assay: 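Genes whose loss weakens secretory pathway function in fly cells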 (primary screen)
- Cell system: Drosophila S2 cells expressing secreted horseradish peroxidase
- Reagent: long dsRNA against Drosophila genes
- Duration: about 5.5 days (5 days dsRNA, then 12 h reporter induction)
- Conditions: reporter expression induced after 5 days of dsRNA, read 12 h later; inducer not stated
- Read-out: 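After 5 days of dsRNA and 12 h of reporter induction, medium peroxidase read by chemiluminescence and scored as per-plate z-score; higher values mean more reporter released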
- Reading the numbers: z-score: higher = more reporter secreted into medium

gene,dsRNA no.,"z-score, replicate 1","z-score, replicate 2","z-score, replicate 3","z-score, replicate 4","phenotype, replicate 1"
exp (expansion),1,-0.59,0.07,,,
aop (anterior open),1,-2.04,-1.08,,,reduced secretion
CG7990,1,0.62,1.38,,,
CG7990,2,0.16,0.14,,,
CG2126,1,0.17,0.34,,,
ptc (patched),1,-0.01,,,,
ptc (patched),2,0.4,0.3,,,
Pmm2 (Phosphomannomutase type 2),1,-0.11,0.33,,,
sa (spermatocyte arrest),1,0.36,0.17,0.28,0.02,
Nup54 (Nucleoporin 54kD),1,-0.26,-0.44,,,
CG4766,1,0.38,0.51,,,
Crtp (Caldesmon-related protein),1,0.47,0.24,,,
loaf (lost and found),1,0.28,0.09,,,
meso18E,1,-0.48,0.26,,,
CG7352,1,0.23,0.25,,,
CG17637,1,0.34,0.27,,,
PGRP-LD + Pmi,1,0.24,0.58,,,
PGRP-LD + Pmi,2,0.26,0.17,-0.15,0.12,
CG14881,1,0.48,0.1,,,
asRNA:CR33945 (antisense RNA:CR33945),1,0.38,0.57,,,
Bacc (Bacchus),1,0.25,0.12,,,
NaCP60E (Na channel protein 60E),1,0.44,0.48,,,
NaCP60E (Na channel protein 60E),2,0.31,-0.59,,,
CG3288,1,0.29,0.34,,,
SmD1 (Small ribonucleoprotein particle protein SmD1),1,-3.09,-2.11,,,reduced secretion
CG7460,1,0.41,0.36,,,
Tmx3 (Thioredoxin-related transmembrane protein 3),1,0.15,0.44,,,
UGP (UDP-glucose pyrophosphorylase),1,0.45,0.34,,,
CG4372,1,0.11,0.3,,,
Ir21a + asRNA:CR43609,1,0.25,0.05,,,
l(2)37Bb (lethal (2) 37Bb),1,0.08,0.27,0.32,0.1,
CG3587,1,0.38,0.4,0.21,0.4,
CG3587,2,0.03,0.42,,,

Reprinted from the entries so far, 4 entries:
gene,dsRNA no.,"z-score, replicate 1","z-score, replicate 2","z-score, replicate 3","z-score, replicate 4","phenotype, replicate 1"
CG7460,1,0.41,0.36,,,
Tmx3 (Thioredoxin-related transmembrane protein 3),1,0.15,0.44,,,
UGP (UDP-glucose pyrophosphorylase),1,0.45,0.34,,,
CG4372,1,0.11,0.3,,,
